# These are yes or no findings as the source states them, for the method shown. For some of these results: A result given as binding can be weak or reduced; the word gives no strength. Sequences can lack the tags named with a protein.
# Protein sequences, listed by entry. Tags and fused reporters are not part of them.
# UniProt O04719: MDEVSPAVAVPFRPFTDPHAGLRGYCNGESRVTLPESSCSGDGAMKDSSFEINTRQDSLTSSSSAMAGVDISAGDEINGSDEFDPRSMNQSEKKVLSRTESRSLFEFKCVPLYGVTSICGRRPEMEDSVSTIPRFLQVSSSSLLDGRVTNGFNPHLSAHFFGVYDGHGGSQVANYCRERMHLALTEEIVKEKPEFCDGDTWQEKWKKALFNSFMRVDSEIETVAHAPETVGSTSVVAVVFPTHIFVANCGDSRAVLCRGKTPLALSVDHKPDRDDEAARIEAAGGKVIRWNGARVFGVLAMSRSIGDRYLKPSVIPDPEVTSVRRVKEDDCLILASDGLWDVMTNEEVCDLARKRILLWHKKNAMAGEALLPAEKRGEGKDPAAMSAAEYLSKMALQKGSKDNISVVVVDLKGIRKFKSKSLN
# Key:
# Test in all cases: two-hybrid; receptors fused to the GAL4 DNA-binding domain (baits), PP2Cs fused to the GAL4 activation domain (preys); growth on media lacking histidine and adenine, supplemented or not with 50 uM ABA; dilutions 10^-1, 10^-2, 10^-3 of saturated cultures spotted
# [1] = target: Sl12g055990 tomato PYR/PYL/RCAR ABA receptor, GAL4 DNA-binding domain fusion (tomato (Solanum lycopersicum))
# [2] = target: Sl06g061180 tomato PYR/PYL/RCAR ABA receptor, GAL4 DNA-binding domain fusion (tomato (Solanum lycopersicum))
# [3] = target: Sl06g050500 tomato PYR/PYL/RCAR ABA receptor, GAL4 DNA-binding domain fusion (tomato (Solanum lycopersicum))
# [4] = target: Sl03g007310 tomato PYR/PYL/RCAR ABA receptor, GAL4 DNA-binding domain fusion (tomato (Solanum lycopersicum))
# [5] = target: Sl08g076960 tomato PYR/PYL/RCAR ABA receptor, GAL4 DNA-binding domain fusion (tomato (Solanum lycopersicum))
# [6] = target: Sl09g015380 tomato PYR/PYL/RCAR ABA receptor, GAL4 DNA-binding domain fusion (tomato (Solanum lycopersicum))
# [7] = target: Sl03g095780 tomato PYR/PYL/RCAR ABA receptor, GAL4 DNA-binding domain fusion (tomato (Solanum lycopersicum))
binding [1],binding [2],binding [3],binding [4],binding [5],binding [6],binding [7],Molecule
binds,,,,,,,"Arabidopsis clade A PP2C ABI2, GAL4 activation domain fusion (from UniProt O04719 1-423) (enzyme)"
no binding,no binding,no binding,no binding,no binding,no binding,no binding,"Arabidopsis PP2C AHG1, GAL4 activation domain fusion (enzyme, UniProt Q9FLI3 1-416) MTEIYRTISTGRGDDVSPTKCRERRRRRIEMRRQAAVFGEPSSSRNRDRTDMEVYSSFDVPLRKQARRSEIGGLPADIGGFLAPPAASSCQKSEAPVWKGEETEDEPLYGIVSVMGRSRKMEDSVTVKPNLCKPEVNRQRPVHFFAVYDGHGGSQVSTLCSTTMHTFVKEELEQNLEEEEEGSENDVVERKWRGVMKRSFKRMDEMATSTCVCGTSVPLCNCDPREAAISGSTAVTAVLTHDHIIVANTGDSRAVLCRNGMAIPLSNDHKPDRPDERARIEAAGGRVLVVDGARVEGILATSRAIGDRYLKPMVAWEPEVTFMRRESGDECLVLASDGLWDVLSSQLACDIARFCLREETPSSLDLNRMAQEDDNDGEQNPSRSVLAATLLTRLALGRQSSDNISVVVIDLKNSSQ"
binds,,,binds,,,,"Arabidopsis clade A PP2C HAB2, GAL4 activation domain fusion (enzyme, UniProt Q9LNP9 1-511) MEEISPAVALTLGLANTMCDSGISSTFDISELENVTDAADMLCNQKRQRYSNGVVDCIMGSVSEEKTLSEVRSLSSDFSVTVQESEEDEPLVSDATIISEGLIVVDARSEISLPDTVETDNGRVLATAIILNETTIEQVPTAEVLIASLNHDVNMEVATSEVVIRLPEENPNVARGSRSVYELECIPLWGTISICGGRSEMEDAVRALPHFLKIPIKMLMGDHEGMSPSLPYLTSHFFGVYDGHGGAQVADYCHDRIHSALAEEIERIKEELCRRNTGEGRQVQWEKVFVDCYLKVDDEVKGKINRPVVGSSDRMVLEAVSPETVGSTAVVALVCSSHIIVSNCGDSRAVLLRGKDSMPLSVDHKPDREDEYARIEKAGGKVIQWQGARVSGVLAMSRSIGDQYLEPFVIPDPEVTFMPRAREDECLILASDGLWDVMSNQEACDFARRRILAWHKKNGALPLAERGVGEDQACQAAAEYLSKLAIQMGSKDNISIIVIDLKAQRKFKTRS"

# — PMC4112642, “Tomato PYR/PYL/RCAR abscisic acid receptors show high expression in root, differential sensitivity to the abscisic acid agonist quinabactin, and the capability to enhance plant drought resistance” (Journal of Experimental Botany, 2014)
